# Reference: the supplement of paper PMC4604168 (melanoma cell lines)
# Some of the results follow. Many values rest on one well or one pass, so single values are uncertain.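 The apoptosis fraction was the count of cleaved-PARP antibody-stained nuclei relative to all DNA-stained nuclei, imaged in 1,536-well plates. Screening doses were set so most cells survived, and baseline and induced cleaved-PARP levels vary greatly across cell lines.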
# System: RPMI7951
# Assay: cleaved PARP positive nuclei fraction relative to DMSO control; melanoma cells; higher = more apoptosis
# Conditions: library dose: low library concentration; 72 h
row,SMILES,cleaved PARP positive nuclei fraction [%]
1,"CC[C@]1(O)C[C@H]2CN(CCc3c([nH]c4ccccc34)[C@@](C(=O)OC)(c3cc4c(cc3OC)N(C=O)[C@H]3[C@@](O)(C(=O)OC)[C@H](OC(C)=O)[C@]5(CC)C=CCN6CC[C@]43[C@@H]65)C2)C1 [vincristine] + CO[C@H]1C[C@@H]2CC[C@@H](C)[C@@](O)(O2)C(=O)C(=O)N2CCCC[C@H]2C(=O)O[C@H]([C@H](C)C[C@@H]2CC[C@@H](OCCO)[C@H](OC)C2)CC(=O)[C@H](C)/C=C(\C)[C@@H](O)[C@@H](OC)C(=O)[C@H](C)C[C@H](C)/C=C/C=C/C=C/1C [everolimus] (first compound 0.0001 µM, partner dose 0.02 µM)",164
2,"COc1cc([C@@H]2c3cc4c(cc3[C@@H](O[C@@H]3O[C@@H]5CO[C@@H](C)O[C@H]5[C@H](O)[C@H]3O)[C@H]3COC(=O)[C@H]23)OCO4)cc(OC)c1O [etoposide] + CC1(C)CCC(c2ccc(Cl)cc2)=C(CN2CCN(c3ccc(C(=O)NS(=O)(=O)c4ccc(N[C@H](CCN5CCOCC5)CSc5ccccc5)c(S(=O)(=O)C(F)(F)F)c4)cc3)CC2)C1 [ABT263] (first compound 0.02 µM, partner dose 0.4 µM)",158
3,"CC[C@]1(O)C[C@H]2CN(CCc3c([nH]c4ccccc34)[C@@](C(=O)OC)(c3cc4c(cc3OC)N(C=O)[C@H]3[C@@](O)(C(=O)OC)[C@H](OC(C)=O)[C@]5(CC)C=CCN6CC[C@]43[C@@H]65)C2)C1 [vincristine] + NC(=O)c1ccc(N(C(N)=O)c2c(F)cccc2F)nc1-c1ccc(F)cc1F [VX702] (first compound 0.0001 µM, partner dose 0.4 µM)",363
4,"Cc1ccc(Nc2nccc(N(C)c3ccc4c(C)n(C)nc4c3)n2)cc1S(N)(=O)=O [Pazopanib] + C=CCNC1=C2C[C@@H](C)C[C@H](OC)[C@H](O)[C@@H](C)/C=C(\C)[C@H](OC(N)=O)[C@@H](OC)/C=C\C=C(/C)C(=O)NC(=CC1=O)C2=O [Tanespimycin] (first compound 0.4 µM, partner dose 0.002 µM)",134
5,"O=C(Nc1cc(C(F)(F)F)cc(C(F)(F)F)c1)c1cc(Cl)ccc1O + Cn1c(=O)n(-c2ccc(C(C)(C)C#N)cc2)c2c3cc(-c4cnc5ccccc5c4)ccc3ncc21 [NVP-BEZ235] (first compound 0.016 µM, partner dose 0.004 µM)",108
6,"Cc1cn(-c2cc(NC(=O)c3ccc(C)c(Nc4nccc(-c5cccnc5)n4)c3)cc(C(F)(F)F)c2)cn1 [nilotinib] + Cc1nc(Nc2ncc(C(=O)Nc3c(C)cccc3Cl)s2)cc(N2CCN(CCO)CC2)n1 [dasatanib] (first compound 0.2 µM, partner dose 0.004 µM)",142
7,"Cc1cc(Nc2cc(N3CCN(C)CC3)nc(Sc3ccc(NC(=O)C4CC4)cc3)n2)n[nH]1 [Tozasertib] + O=C(O)c1ccc2c(c1)nc(Nc1cccc(Cl)c1)c1ccncc12 [CX4945] (first compound 0.006 µM, partner dose 0.4 µM)",66.4
8,"O=C(Nc1cc(C(F)(F)F)cc(C(F)(F)F)c1)c1cc(Cl)ccc1O + CO[C@H]1C[C@@H]2CC[C@@H](C)[C@@](O)(O2)C(=O)C(=O)N2CCCC[C@H]2C(=O)O[C@H]([C@H](C)C[C@@H]2CC[C@@H](OCCO)[C@H](OC)C2)CC(=O)[C@H](C)/C=C(\C)[C@@H](O)[C@@H](OC)C(=O)[C@H](C)C[C@H](C)/C=C/C=C/C=C/1C [everolimus] (first compound 0.016 µM, partner dose 0.02 µM)",182
9,"Cc1cc(Nc2cc(N3CCN(C)CC3)nc(Sc3ccc(NC(=O)C4CC4)cc3)n2)n[nH]1 [Tozasertib] + Nc1cccc2c1CN(C1CCC(=O)NC1=O)C2=O [lenalidomide] (first compound 0.006 µM, partner dose 1 µM)",84.3
10,"O=C(Nc1cc(C(F)(F)F)cc(C(F)(F)F)c1)c1cc(Cl)ccc1O + Cn1nnc2c(C(N)=O)ncn2c1=O [temozolomide] (first compound 0.016 µM, partner dose 2 µM)",57.3
11,"COc1cc([C@@H]2c3cc4c(cc3[C@@H](O[C@@H]3O[C@@H]5CO[C@@H](C)O[C@H]5[C@H](O)[C@H]3O)[C@H]3COC(=O)[C@H]23)OCO4)cc(OC)c1O [etoposide] + Cn1sc(=O)n(Cc2ccccc2)c1=O [TDZD-8] (first compound 0.02 µM, partner dose 0.4 µM)",64.9
12,"Cc1cn(-c2cc(NC(=O)c3ccc(C)c(Nc4nccc(-c5cccnc5)n4)c3)cc(C(F)(F)F)c2)cn1 [nilotinib] + Nc1nc(F)nc2c1ncn2[C@@H]1O[C@H](CO)[C@@H](O)[C@@H]1O [fludarabine] (first compound 0.2 µM, partner dose 0.2 µM)",101
13,"O=c1[nH]nc(Sc2ncc([N+](=O)[O-])s2)n1-c1ccc2c(c1)OCCO2 + CO[C@H]1C[C@@H]2CC[C@@H](C)[C@@](O)(O2)C(=O)C(=O)N2CCCC[C@H]2C(=O)O[C@H]([C@H](C)C[C@@H]2CC[C@@H](OCCO)[C@H](OC)C2)CC(=O)[C@H](C)/C=C(\C)[C@@H](O)[C@@H](OC)C(=O)[C@H](C)C[C@H](C)/C=C/C=C/C=C/1C [everolimus] (first compound 0.2 µM, partner dose 0.02 µM)",235
14,"O=c1[nH]nc(Sc2ncc([N+](=O)[O-])s2)n1-c1ccc2c(c1)OCCO2 + Cn1nnc2c(C(N)=O)ncn2c1=O [temozolomide] (first compound 0.2 µM, partner dose 2 µM)",121
15,"Cc1cc(Nc2cc(N3CCN(C)CC3)nc(Sc3ccc(NC(=O)C4CC4)cc3)n2)n[nH]1 [Tozasertib] + C[C@@H](Oc1cc(-c2cnn(C3CCNCC3)c2)cnc1N)c1c(Cl)ccc(F)c1Cl [Crizotinib] (first compound 0.006 µM, partner dose 0.2 µM)",47.4
16,"O=c1[nH]nc(Sc2ncc([N+](=O)[O-])s2)n1-c1ccc2c(c1)OCCO2 + NC(=O)c1ccc(N(C(N)=O)c2c(F)cccc2F)nc1-c1ccc(F)cc1F [VX702] (first compound 0.2 µM, partner dose 0.4 µM)",202
17,"Cc1ccc(Nc2nccc(N(C)c3ccc4c(C)n(C)nc4c3)n2)cc1S(N)(=O)=O [Pazopanib] + CO[C@H]1C[C@@H]2CC[C@@H](C)[C@@](O)(O2)C(=O)C(=O)N2CCCC[C@H]2C(=O)O[C@H]([C@H](C)C[C@@H]2CC[C@@H](OCCO)[C@H](OC)C2)CC(=O)[C@H](C)/C=C(\C)[C@@H](O)[C@@H](OC)C(=O)[C@H](C)C[C@H](C)/C=C/C=C/C=C/1C [everolimus] (first compound 0.4 µM, partner dose 0.02 µM)",26.3
18,"Cc1ccc(Nc2nccc(N(C)c3ccc4c(C)n(C)nc4c3)n2)cc1S(N)(=O)=O [Pazopanib] + CCCS(=O)(=O)Nc1ccc(F)c(C(=O)c2c[nH]c3ncc(Cl)cc23)c1F [PLX4720] (first compound 0.4 µM, partner dose 0.08 µM)",109
19,"N#CC[C@H](C1CCCC1)n1cc(-c2ncnc3[nH]ccc23)cn1 [ruxolitinib] + OCc1c[nH]c2ccccc12 [Indole-3-carbinol] (first compound 1 µM, partner dose 0.8 µM)",90
20,"Cc1ccc(Nc2nccc(N(C)c3ccc4c(C)n(C)nc4c3)n2)cc1S(N)(=O)=O [Pazopanib] + OCc1c[nH]c2ccccc12 [Indole-3-carbinol] (first compound 0.4 µM, partner dose 0.8 µM)",105
21,"COc1cc([C@@H]2c3cc4c(cc3[C@@H](O[C@@H]3O[C@@H]5CO[C@@H](C)O[C@H]5[C@H](O)[C@H]3O)[C@H]3COC(=O)[C@H]23)OCO4)cc(OC)c1O [etoposide] + C[C@]1(O)C[C@@H](c2nc(-c3ccc4ccc(-c5ccccc5)nc4c3)c3c(N)nccn32)C1 [OSI906] (first compound 0.02 µM, partner dose 0.4 µM)",108
22,"N#CC[C@H](C1CCCC1)n1cc(-c2ncnc3[nH]ccc23)cn1 [ruxolitinib] + CO[C@H]1C[C@@H]2CC[C@@H](C)[C@@](O)(O2)C(=O)C(=O)N2CCCC[C@H]2C(=O)O[C@H]([C@H](C)C[C@@H]2CC[C@@H](OCCO)[C@H](OC)C2)CC(=O)[C@H](C)/C=C(\C)[C@@H](O)[C@@H](OC)C(=O)[C@H](C)C[C@H](C)/C=C/C=C/C=C/1C [everolimus] (first compound 1 µM, partner dose 0.02 µM)",82.8
23,"Cc1ccc(Nc2nccc(N(C)c3ccc4c(C)n(C)nc4c3)n2)cc1S(N)(=O)=O [Pazopanib] + Cn1nnc2c(C(N)=O)ncn2c1=O [temozolomide] (first compound 0.4 µM, partner dose 2 µM)",63.6
24,"O=c1[nH]nc(Sc2ncc([N+](=O)[O-])s2)n1-c1ccc2c(c1)OCCO2 + CCCS(=O)(=O)Nc1ccc(F)c(C(=O)c2c[nH]c3ncc(Cl)cc23)c1F [PLX4720] (first compound 0.2 µM, partner dose 0.08 µM)",32.1
25,"Cc1ccc(Nc2nccc(N(C)c3ccc4c(C)n(C)nc4c3)n2)cc1S(N)(=O)=O [Pazopanib] + CC(=O)c1c(C)c2cnc(Nc3ccc(N4CCNCC4)cn3)nc2n(C2CCCC2)c1=O [palbociclib] (first compound 0.4 µM, partner dose 0.04 µM)",116

# 2 entries from above, with bars between the fields.
row | SMILES | cleaved PARP positive nuclei fraction [%]
1 | CC[C@]1(O)C[C@H]2CN(CCc3c([nH]c4ccccc34)[C@@](C(=O)OC)(c3cc4c(cc3OC)N(C=O)[C@H]3[C@@](O)(C(=O)OC)[C@H](OC(C)=O)[C@]5(CC)C=CCN6CC[C@]43[C@@H]65)C2)C1 [vincristine] + CO[C@H]1C[C@@H]2CC[C@@H](C)[C@@](O)(O2)C(=O)C(=O)N2CCCC[C@H]2C(=O)O[C@H]([C@H](C)C[C@@H]2CC[C@@H](OCCO)[C@H](OC)C2)CC(=O)[C@H](C)/C=C(\C)[C@@H](O)[C@@H](OC)C(=O)[C@H](C)C[C@H](C)/C=C/C=C/C=C/1C [everolimus] (first compound 0.0001 µM, partner dose 0.02 µM) | 164
11 | COc1cc([C@@H]2c3cc4c(cc3[C@@H](O[C@@H]3O[C@@H]5CO[C@@H](C)O[C@H]5[C@H](O)[C@H]3O)[C@H]3COC(=O)[C@H]23)OCO4)cc(OC)c1O [etoposide] + Cn1sc(=O)n(Cc2ccccc2)c1=O [TDZD-8] (first compound 0.02 µM, partner dose 0.4 µM) | 64.9
